According to patent US20200255492A1, “LEPTIN PEPTIDES AND THEIR USE FOR TREATING NEUROLOGICAL DISORDERS” (UNIVERSITY OF DUNDEE, priority 2017, published 2020):
For at least one compound, name, drawing or mass did not settle the structure.

System: differentiated human neural cells (SH-SY5Y)
Test: LDH release assay (membrane leakage, cell death)
Format: cell-based
Conditions: 10 μM Aβ1-42; WP1066 5 μM, wortmannin 50 nM
Description: The human neuroblastoma cell line, SH-SY5Y (ECACC, UK) was maintained in Dulbecco's Modified Eagle Medium supplemented with glucose ([…]) and 10% (v/v) cosmic calf serum (Fisher Scientific, UK) at 37° C. in a humidified atmosphere of 5% CO2, 95% air and allowed to reach 70-80% confluence before seeding. Cells (passage 10-18) were plated at 10 000 cells per well in 96 well tissue culture plates (Nunc, VWR, UK) and at a density of 2×10^5 cells in 35 mm dishes for protein extraction. To induce differentiation, cells were cultured in DMEM supplemented with glucose ([…]), 1% (v/v) cosmic calf serum and 10 μM retinoic acid for 5 days. Thereafter they were incubated in DMEM supplemented with glucose ([…]), serum replacement 2 (2%; Sigma, UK) and 18 μM 5-fluorodeoxyuridine to inhibit proliferation of undifferentiated cells. […]
The concentration of lactate dehydrogenase (LDH) in the culture medium or the mitochondrial activity within cells was used to monitor the level of cell death, as previously (Oldreive and Doherty 2010). […] Plates were washed 5-10 times in dH2O and cells solubilised in 100 μl dimethyl sulfoxide (DMSO) before reading the absorbance on a Biohit BP100 plate reader. For all assays, data is expressed as percentage relative to control, untreated wells to normalize for differences in plating density between individual experiments. […]

For `COC[C@H]1OC(=O)c2coc3c2[C@@]1(C)C1=C(C3=O)[C@@H]2CCC(=O)[C@@]2(C)C[C@H]1OC(C)=O` [wortmannin, reference compound], the “effect of inhibitor on leptin (116-130)-mediated neuroprotection (LDH)” value was “attenuated leptin (116-130)-mediated neuroprotection”.
